# Laboratory results reported in PubChem BioAssay AID493014 (National Center for Advancing Translational Sciences (NCATS), 2011).
# This is one part of the list. These are further read-outs of the screen, such as a control signal, another cell line or another target. No call is given for them. The list favours compounds with an active or inconclusive main result. Potencies come from curve fits of mixed quality, noted in brackets.
# Test: qHTS Assay to Find Inhibitors of Chronic Active B-Cell Receptor Signaling
# Conditions: ABC-DLBCL IkBa-CBG/CBR reporter, luminescence ratio (green luciferase fused to IkBa over red control in TMD8 lymphoma cells), 4 h
# Outline: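 Doxycycline induced both beetle luciferases in TMD8 lymphoma cells; IKK-driven degradation limits the IkappaBalpha-fused green signal, while red luminescence normalises for cell number and nonspecific effects. Compounds tested up to 46 uM, 4 hrs.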
# [1] = measured here: CBR red luminescence, cell number
# [2] = measured here: IkBa-CBG green luminescence
SMILES,AC50 [1],AC50 [2]
COc1ccccc1-c1sc2cc3c(cc2c1C#Cc1ccccn1)OCO3,"29.1 µM [rising, single point]",
O=C(NCCN1CCOCC1)/C(=C\c1ccc(Br)cc1)NC(=O)c1cccs1,"18.4 µM [falling, single point]",
O=C(NC1CCCCC1)C(c1ccc2ncccc2c1)N(Cc1ccc(F)cc1)C(=O)c1cccs1 (stereo not drawn),"13 µM [falling, partial curve, poor fit]",
CC(Oc1cccnc1[N+](=O)[O-])C(=O)N1CCc2ccccc21 (stereo not drawn),"32.6 µM [rising, partial curve, poor fit]",
C#CCNC(=O)/C=C/c1ccc(OC)cc1,"18.4 µM [falling, single point]",
O=C(C[C@H]1C/C=C\C[C@@H](Cc2ccc(F)cc2)C(=O)O[C@@H](c2ccccc2)CNC1=O)N[C@@H](CO)Cc1ccccc1,,"29.1 µM [rising, partial curve, poor fit]"
Cc1ccc(C(=O)Nc2ccc(Oc3ccc(C(=O)O)c(C(=O)O)c3)cc2)cc1C,"9.2 µM [falling, partial curve, poor fit]",
COc1ccc(N=Cc2c(O)c3ccccc3oc2=O)cc1,"20.6 µM [falling, single point]",
C[C@@H](C(=O)N[C@@H](Cc1c[nH]c2ccccc12)C(=O)O)n1nnc2ccccc2c1=O,"6.31 µM [rising, single point]",
O=C(COC(=O)c1cc[n+]([O-])cc1)Nc1ccc(F)c([N+](=O)[O-])c1,"9.2 µM [falling, partial curve, poor fit]",
CCOC(=O)c1sc(NC(=O)c2ccco2)nc1C,"1.58 µM [falling, partial curve, poor fit]",
COC(=O)c1c(-n2c(C)cc(C=O)c2C)sc2c1CCCC2,"2.82 µM [falling, full curve, poor fit]",
Cc1ccc(/C=C2\SC(=S)N(CCC(=O)Nc3cccnc3)C2=O)cc1,"10 µM [falling, partial curve]",
CCOc1ccc(OCC)c(S(=O)(=O)NCc2ccccc2)c1,"3.16 µM [rising, full curve, poor fit]",
Cc1cc(=O)[nH]c2c(N=Nc3ccc(O)cc3)c(N)nn12,"10 µM [falling, partial curve]",
CC1=CC(C)(C)N(C(=O)CSc2nnc(N)s2)c2ccccc21,"0.82 µM [rising, full curve, poor fit]",
CC(C)(C)NNC(=S)Nc1cccc(F)c1,"35.5 µM [falling, single point]","14.1 µM [falling, partial curve]"

# Copied from the list:
# AC50 [1], CCOc1ccc(OCC)c(S(=O)(=O)NCc2ccccc2)c1 is entered as 3.16 µM [rising, full curve, poor fit]
# AC50 [1], O=C(COC(=O)c1cc[n+]([O-])cc1)Nc1ccc(F)c([N+](=O)[O-])c1 is entered as 9.2 µM [falling, partial curve, poor fit]
